The data set in a line: general procedure: Fmoc solid-phase peptide synthesis; TentaGel S RAM resin (TentaGel Rink amide); HOBt and HBTU. The note with it: whole synthesis.
Consider Ac-AHFSYNWRWLPP-NH2, for which the isolated yield was determined as 4%.
Next, Ac-WHFSANWRWLPP-NH2: 8%; Ac-WHFSYNWRWLPP-NH2: 9%.
Ac-WHFAYNWRWLPP-NH2 registered an isolated yield of 7%.
Next, Ac-WHASYNWRWLPP-NH2: 7%; Ac-WHFSYNWRWLPA-NH2: 8%.
The substance Ac-WAFSYNWRWLPP-NH2 yielded an isolated yield of 7%.

The values above are taken from article PMC11293026 (Chemical Communications (Cambridge, England), 2024).
